{"source": "patent US20150376570A1", "about": "“METHODS AND COMPOSITIONS FOR PRODUCING INDUCED HEPATOCYTES” (GENENTECH, INC., priority 2012, published 2015)", "system": "human fibroblasts", "test": "Effect of dexamethasone on reprogramming (albumin gene expression)", "type": "cell-based", "note": "For at least one compound, name, drawing or mass did not settle the structure."}
{"smiles": "C[C@@H]1C[C@H]2[C@@H]3CCC4=CC(=O)C=C[C@]4(C)[C@@]3(F)[C@@H](O)C[C@]2(C)[C@@]1(O)C(=O)CO", "note": "[dexamethasone]", "values": [{"measurement": "albumin expression at 10-fold increased dexamethasone supplementation", "setting": "1.0 μM vs 0.1 μM, with mRNA transfection", "result": "slightly lower albumin expression"}, {"measurement": "hepatic induction measured by albumin gene expression", "setting": "dexamethasone alone, 0.1 μM or 1.0 μM, without 11TF or 6TF transfection", "result": "did not result in hepatic induction"}]}
